Measured values reported in paper PMC7296346.
These are yes or no findings as the source states them, for the method shown. In cells and extracts the contact can be indirect. Some binding calls cover weakened binding; strength is not graded here.

Amino acid sequences for entries named in this document (tags omitted). A change or cut given only in a name is not applied to a line headed by its entry. Chains listed by the source or under a name are the forms on record and can include a tag or linker.
UniProt P23685: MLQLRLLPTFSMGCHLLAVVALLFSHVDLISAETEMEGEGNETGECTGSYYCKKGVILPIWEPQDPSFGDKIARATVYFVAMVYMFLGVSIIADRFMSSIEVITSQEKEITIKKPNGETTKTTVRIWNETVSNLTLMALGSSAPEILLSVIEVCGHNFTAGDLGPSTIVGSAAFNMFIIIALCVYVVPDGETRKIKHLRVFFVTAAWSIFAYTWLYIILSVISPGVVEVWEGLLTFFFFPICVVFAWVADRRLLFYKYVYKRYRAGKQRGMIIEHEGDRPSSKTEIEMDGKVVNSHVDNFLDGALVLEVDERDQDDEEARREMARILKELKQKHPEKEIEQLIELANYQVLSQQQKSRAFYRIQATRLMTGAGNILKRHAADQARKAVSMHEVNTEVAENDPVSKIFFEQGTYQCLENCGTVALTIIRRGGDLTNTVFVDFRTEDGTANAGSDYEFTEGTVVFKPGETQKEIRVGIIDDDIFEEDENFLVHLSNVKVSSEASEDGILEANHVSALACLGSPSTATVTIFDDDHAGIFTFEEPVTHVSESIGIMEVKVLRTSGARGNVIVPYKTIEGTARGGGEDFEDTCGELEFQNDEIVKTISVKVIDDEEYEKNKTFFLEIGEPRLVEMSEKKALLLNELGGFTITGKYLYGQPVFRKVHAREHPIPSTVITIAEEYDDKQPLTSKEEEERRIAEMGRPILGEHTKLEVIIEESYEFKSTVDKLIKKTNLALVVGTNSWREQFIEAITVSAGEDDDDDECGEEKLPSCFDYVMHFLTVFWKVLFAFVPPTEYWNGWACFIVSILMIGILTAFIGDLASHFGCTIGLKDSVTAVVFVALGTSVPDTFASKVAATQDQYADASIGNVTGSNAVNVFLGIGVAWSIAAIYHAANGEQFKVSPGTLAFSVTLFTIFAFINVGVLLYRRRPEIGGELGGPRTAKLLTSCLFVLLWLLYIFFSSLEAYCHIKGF
K229Q XIP peptide, NCX1 219-238, with N-terminal biotin (P23685, form named): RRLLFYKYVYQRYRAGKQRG

Columns and labels:
[1] = target: K229Q XIP peptide, NCX1 219-238, with N-terminal biotin (UniProt P23685); assay: pull-down; biotinylated XIP peptide with lysates of HEK cells expressing YFP fusions of NCX1 f-loop regions; captured on Streptavidin-Sepharose, eluted with SDS-PAGE loading buffer, western blot; only the target purified
[2] = target: Canine NCX1.1 with CFP or YFP inserted at amino acid 266 (WT NCX1 FRET sensor) (canine) (UniProt P23685); assay: FRET or BRET; intermolecular FRET between CFP- and YFP-tagged NCX1 in live, transiently transfected NRVMs; Tyrode's buffer, room temperature; untreated or palmitic acid (20 μM, 4 h)
[3] = target: Canine NCX1.1 with CFP or YFP inserted at amino acid 266 (WT NCX1 FRET sensor) (canine) (UniProt P23685); assay: FRET or BRET; intermolecular FRET between CFP- and YFP-tagged NCX1 in live, transiently transfected HEK293 cells (and zDHHC5 KO cells); Tyrode's buffer, room temperature; treatments: 2-BP, SDS, MβCD, PalmB, ML348, ML349, Na-free, Ca-free, XIP peptides, PIP2 depletion

| binding [1] | binding [2] | binding [3] | Substance |
| --- | --- | --- | --- |
| binds |  |  | YFP-NCX1 266-765 (YFP-tagged WT NCX1 f-loop) (from UniProt P23685 298-797) (domain or fragment) |
|  | binds | binds | Canine NCX1.1 with CFP or YFP inserted at amino acid 266 (WT NCX1 FRET sensor) (from UniProt P23685 33-970) |
